Data source: PubChem BioAssay AID1259425 (University of Nebraska Medical Center, 2018)
Purpose: 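Seek colon cancer weak points whose silencing resembles KSR1 loss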 (primary screen). System: HCT116 human colon cancer cells. Reagent: siRNA pool against human genes, 50 nM siRNA. Read-out: 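mRNA of six signature genes measured together by branched-DNA assay after 50 nM siRNA pool, blank removed, divided by geometric mean of two housekeeping genes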. Scale: BNIP3L mRNA: higher = more BNIP3L transcript after knockdown; NDRG1 mRNA: higher = more NDRG1 transcript after knockdown; BNIP3 mRNA: higher = more BNIP3 transcript after knockdown; ALDOC mRNA: higher = more ALDOC transcript after knockdown.
Shown is one part, drawn at random, of about 14,000 reagents. Further read-outs or replicates are left out here. No sequences are given here. Not given: the time to read-out.

target | BNIP3L mRNA, set 1 | NDRG1 mRNA, set 1 | BNIP3 mRNA, set 1 | ALDOC mRNA, set 1
TTF2 | 0.106 | 0.435 | 0.229 | 0.0267
FEV | 0.23 | 0.449 | 0.583 | 0.056
KRT10 | 0.0909 | 0.209 | 0.352 | 0.0407
ABCC3 | 0.301 | 0.372 | 0.281 | 0.128
TMEM121B | 0.0928 | 0.448 | 0.353 | 0.0385
H1-10 | 0.0907 | 0.298 | 0.196 | 0.0239
ARTN | 0.111 | 0.46 | 0.301 | 0.0164
LATS1 | 0.0525 | 0.0231 | 0.226 | 0.00178
G6PC3 | 0.124 | 0.295 | 0.174 | 0.0395
CACNG4 | 0.0956 | 0.126 | 0.315 | 0.0177
TANC2 | 0.132 | 0.283 | 0.362 | 0.0591
FARP2 | 0.0824 | 0.101 | 0.293 | 0.0143
IL1R2 | 0.0859 | 0.171 | 0.282 | 0.07
PHYHIP | 0.0949 | 0.154 | 0.327 | 0.0499
MAGI1 | 0.14 | 0.132 | 0.159 | 0.00747
GCAT | 0.172 | 0.861 | 0.464 | 0.019
LRRC47 | 0.185 | 0.223 | 0.388 | 0.0866
GRIN2C | 0.0856 | 0.126 | 0.287 | 0.00988
ADAMTSL1 | 0.124 | 0.0832 | 0.307 | 0.0127
ZC3H14 | 0.395 | 0.395 | 0.433 | 0.0668
CD81 | 0.0596 | 0.212 | 0.415 | 0.0275
IL31RA | 0.111 | 0.169 | 0.277 | 0.0357
HAS2 | 0.111 | 0.0684 | 0.292 | 0.0164
TAS1R2 | 0.202 | 0.263 | 0.391 | 0.0227
FBXL8 | 0.04 | 0.145 | 0.218 | 0.0141
KIF3B | 0.0647 | 0.111 | 0.257 | 0.0172
ZNF512B | 0.167 | 0.141 | 0.32 | 0.084
ZMIZ1 | 0.104 | 0.28 | 0.208 | 0.0434
LTBP4 | 0.0875 | 0.23 | 0.272 | 0.0295
OVOL1 | 0.0804 | 0.366 | 0.245 | 0.0505
CACNB4 | 0.214 | 0.338 | 0.358 | 0.0299
STX1A | 0.0407 | 0.236 | 0.517 | 0.00854
GNG12 | 0.0729 | 0.104 | 0.254 | 0.0136
SPOUT1 | 0.0585 | 0.193 | 0.264 | 0.0259
MEOX1 | 0.0738 | 0.132 | 0.287 | 0.0112
PPP1R11 | 0.0765 | 0.329 | 0.224 | 0.0188
USP11 | 0.0425 | 0.159 | 0.233 | 0.0445
CD207 | 0.197 | 0.154 | 0.229 | 0.0501
TERT | 0.198 | 0.384 | 0.392 | 0.0585
CWC15 | 0.0854 | 0.465 | 0.36 | 0.0594
LMAN2L | 0.154 | 0.417 | 0.39 | 0.041
PDCD1LG2 | 0.0927 | 0.242 | 0.554 | 0.022
GLCE | 0.127 | 0.334 | 0.43 | 0.0276
HUS1B | 0.108 | 0.119 | 0.245 | 0.0238
CSTB | 0.0517 | 0.357 | 0.397 | 0.0243
MRPL23 | 0.152 | 0.219 | 0.357 | 0.0149
SLC46A2 | 0.139 | 0.0816 | 0.332 | 0.0176
PLGRKT | 0.0792 | 0.108 | 0.265 | 0.0369
SIGIRR | 0.074 | 0.0568 | 0.313 | 0.0233
CHRNA5 | 0.105 | 0.129 | 0.268 | 0.0199

An excerpt from above, showing only “NDRG1 mRNA, set 1”:
TTF2	0.435
FEV	0.449
KRT10	0.209
